Test results: PubChem BioAssay AID328 (DTP/NCI, 2004)
The list does not hold the whole screen: it gathers tests that were run many times, whatever their T/C, doses with no T/C, and many T/C values between a quarter and a half above the control. Other doses and runs of a compound stand elsewhere. T/C: endpoint of the treated group in % of that of the vehicle group. Some doses have a count of surviving animals in place of a T/C: the source holds a T/C of zero for them, seemingly a mark for toxic or unscored doses. Some doses without a T/C left all or most animals alive at the check, yet need not have been tolerated: survival well below the control is almost never listed, so the zero probably covers shortened survival too. Survivors were counted at the toxicity check, usually on the fifth day, unless a day is given; later deaths do not show. Schedule codes are those of the source, read here as Q, the interval in days (D) or hours (H), X, the number of doses. Where survival is the endpoint, this PubChem deposit counts one and a half times the control or more as active, and values a quarter to a half above the control carry no call in these data; other NCI protocols may use other cut-offs. Marks such as (2×) say how often a value occurs here. Some doses were run more than once; their values stand side by side, smallest first.

Test system: BDF1 mice, P388 leukemia ip, median survival T/C
Assay: NCI In Vivo Anticancer Drug Screen. Data for tumor model P388 Leukemia (intraperitoneal) in B6D2F1 (BDF1) mice
Details: T/C endpoint: median survival time, higher T/C = longer survival
Outline: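 Each value expresses how treatment altered survival: treated-mouse outcome over vehicle-mouse outcome, both groups bearing the transplanted tumour.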

[1] = dose: 200.0 mg/kg/injection, schedule: Q01DX009 (ip), vehicle: saline with Tween-80
[2] = dose: 25.0 mg/kg/injection, schedule: Q01DX009 (ip), vehicle: saline with Tween-80
[3] = dose: 50.0 mg/kg/injection, schedule: Q01DX009 (ip), vehicle: saline with Tween-80
[4] = dose: 75.0 mg/kg/injection, schedule: Q01DX009 (ip), vehicle: saline with Tween-80
[5] = dose: 100.0 mg/kg/injection, schedule: Q01DX009 (ip), vehicle: saline with Tween-80
[6] = dose: 200.0 mg/kg/injection, schedule: Q04DX003 (ip), vehicle: Klucel (hydroxypropylcellulose) (HPC)
[7] = dose: 400.0 mg/kg/injection, schedule: Q04DX003 (ip), vehicle: Klucel (hydroxypropylcellulose) (HPC)

Question: How did the survivor count [1] turn out when `O=C(NNc1ccccc1)C12CC3CC(CC(C3)C1)C2` was run?
Answer: 6 of 6

Question: Which survivor count (dose: 400.0 mg/kg/injection, schedule: Q01DX009 (ip), vehicle: other) does the source give for `CN(C)c1ccc(CC2Cc3ccccc3C2=O)cc1` (stereo not given) here?
Answer: 4 of 6

Question: `O=C(O)O.[Mn]` was tested. Which survivor count (dose: 400.0 mg/kg/injection, schedule: Q01DX010 (ip), vehicle: water) did it give?
Answer: 10 of 10

Question: Which survivor count [1] does the source give for `CC(C)(C)OP(=O)(OC(C)(C)C)c1ccccc1` here?
Answer: 0 of 6

Question: How did the survivor count (dose: 400.0 mg/kg/injection, schedule: Q01DX001 (ip), vehicle: saline with Tween-80) turn out when `O=C(O)c1onc2ccccc12` was run?
Answer: 0 of 6

Question: For `CNNCc1ccc(/C=N/NC(N)=S)cc1`, which survivor count (dose: 100.0 mg/kg/injection, schedule: Q01DX009 (ip), vehicle: water) is on record?
Answer: 5 of 6

Question: With `C=CC[n+]1ccccc1C(c1ccccc1)c1ccccc1` as the compound, how does the survivor count [2] read?
Answer: 3 of 6

Question: And the survivor count (dose: 25.0 mg/kg/injection, schedule: Q04DX003 (ip), vehicle: saline with Tween-80)?
Answer: 6 of 6

Question: And the survivor count (dose: 50.0 mg/kg/injection, schedule: Q04DX003 (ip), vehicle: saline with Tween-80)?
Answer: 0 of 6

Question: Which T/C [2] does the source give for `COc1cc2cc[n+](C)c(Cc3ccccc3)c2cc1OC` here?
Answer: 140 % of control (2×)

Question: And the T/C (dose: 35.0 mg/kg/injection, schedule: Q01DX009 (ip), vehicle: Klucel (hydroxypropylcellulose) (HPC))?
Answer: 141 % of control

Question: And the T/C [3]?
Answer: 135 and 140 % of control

Question: What about the survivor count (dose: 75.0 mg/kg/injection, schedule: Q01DX009 (ip), vehicle: Klucel (hydroxypropylcellulose) (HPC)) of the same compound?
Answer: 0 of 6

Question: And the survivor count [4]?
Answer: 0 of 6

Question: What about the survivor count [5] of the same compound?
Answer: 0 of 6

Question: What about the survivor count (dose: 200.0 mg/kg/injection, schedule: Q04DX003 (ip), vehicle: saline with Tween-80) of the same compound?
Answer: 3 of 6

Question: For `c1ccc(CCSc2ncnc3nc[nH]c23)cc1`, which survivor count (dose: 250.0 mg/kg/injection, schedule: Q01DX010 (ip), vehicle: saline) is on record?
Answer: 6 of 6

Question: `S=C([S][Sn]([c]1ccccc1)([c]1ccccc1)[c]1ccccc1)N1CCCCC1` was tested. Which survivor count [3] did it give?
Answer: 6 of 6

Question: And the survivor count [5]?
Answer: 5 of 6

Question: What about the survivor count [1] of the same compound?
Answer: 1 of 6

Question: What about the survivor count (dose: 400.0 mg/kg/injection, schedule: Q01DX009 (ip), vehicle: saline with Tween-80) of the same compound?
Answer: 0 of 6

Question: What does the source list for `CC(C)COC(=O)NCCF`?
Answer: survivor count [3]: 0 of 6; survivor count [5]: 0 of 6; survivor count [1]: 0 of 6

Question: For `CCOC(=O)/C(=N\O)C1=CSC2=NNC(C)(C)N12`, which survivor count [5] is on record?
Answer: 6 of 6

Question: With `CCC(C)C(=O)O[C@H]1C(=O)O[C@@H]2C[C@H]3C(C)=CC(=O)[C@@H](O)[C@]3(C)[C@H]3[C@@H](O)[C@H](O)[C@@]4(C)OC[C@]32[C@@H]14` (stereo not given in full) as the compound, how does the T/C (dose: 0.02 mg/kg/injection, schedule: Q01DX009 (ip), vehicle: saline + alcohol) read?
Answer: 134 % of control

Question: And the T/C (dose: 0.05 mg/kg/injection, schedule: Q01DX009 (ip), vehicle: saline + alcohol)?
Answer: 134 % of control

Question: And the T/C (dose: 0.1 mg/kg/injection, schedule: Q01DX009 (ip), vehicle: saline + alcohol)?
Answer: 144 % of control

Question: What about the T/C (dose: 0.12 mg/kg/injection, schedule: Q01DX009 (ip), vehicle: saline + alcohol) of the same compound?
Answer: 140 % of control

Question: What about the T/C (dose: 0.19 mg/kg/injection, schedule: Q01DX009 (ip), vehicle: saline + alcohol) of the same compound?
Answer: 149 % of control

Question: What about the T/C (dose: 0.25 mg/kg/injection, schedule: Q01DX009 (ip), vehicle: saline + alcohol) of the same compound?
Answer: 132 % of control

Question: And the T/C (dose: 0.38 mg/kg/injection, schedule: Q01DX009 (ip), vehicle: saline + alcohol)?
Answer: 141 % of control

Question: What about the T/C (dose: 0.5 mg/kg/injection, schedule: Q01DX009 (ip), vehicle: saline + alcohol) of the same compound?
Answer: 132 % of control

Question: What about the survivor count (dose: 6.0 mg/kg/injection, schedule: Q01DX009 (ip), vehicle: saline + alcohol) of the same compound?
Answer: 1 of 6

Question: Which T/C (dose: 1.25 mg/kg/injection, schedule: Q01DX009 (ip), vehicle: saline with Tween-80) does the source give for `COC1=CC(=O)c2c(O)cc(OC)c(O)c2C1=O` here?
Answer: 127 % of control

Question: And the T/C (dose: 10.0 mg/kg/injection, schedule: Q01DX009 (ip), vehicle: saline with Tween-80)?
Answer: 129 % of control

Question: Which results are given for `COc1cc(C=Nc2cccc(C(=O)O)c2)ccc1N(CCCl)CCCl`?
Answer: survivor count (dose: 100.0 mg/kg/injection, schedule: Q04DX003 (ip), vehicle: saline with Tween-80): 3 of 6; survivor count (dose: 150.0 mg/kg/injection, schedule: Q04DX003 (ip), vehicle: saline with Tween-80): 1 of 6

Question: `CCN(CC)CCNc1ccc([N+](=O)[O-])c2sc3ccccc3c(=O)c12` was tested. Which survivor count (dose: 200.0 mg/kg/injection, schedule: Q01DX009 (ip), vehicle: saline sonified) did it give?
Answer: 6 of 6

Question: With `N#CC(C#N)=Cc1ccc2c(c1)CCC2` as the compound, how does the survivor count (dose: 19.0 mg/kg/injection, schedule: Q01DX009 (ip), vehicle: saline with Tween-80) read?
Answer: 6 of 6

Question: And the survivor count [4]?
Answer: 2 of 6

Question: How did the survivor count [6] turn out when `COc1ccc2c(c1OC)C1(CCN(C)C)CC(=O)CCC1C=C2` (stereo not given) was run?
Answer: 6 of 6

Question: What about the survivor count (dose: 270.0 mg/kg/injection, schedule: Q01DX009 (ip), vehicle: Klucel (hydroxypropylcellulose) (HPC)) of the same compound?
Answer: 0 of 6

Question: What about the survivor count [7] of the same compound?
Answer: 0 of 6

Question: Which T/C (dose: 0.68 mg/kg/injection, schedule: Q01DX009 (ip), vehicle: saline) does the source give for `N#Cc1ccc(NC(=O)N(CCCl)N=O)cc1` here?
Answer: 149 % of control

Question: What about the T/C (dose: 0.75 mg/kg/injection, schedule: Q01DX009 (ip), vehicle: Klucel (hydroxypropylcellulose) (HPC)) of the same compound?
Answer: 141 % of control

Question: And the T/C (dose: 1.5 mg/kg/injection, schedule: Q01DX009 (ip), vehicle: Klucel (hydroxypropylcellulose) (HPC))?
Answer: 141 % of control

Question: What about the survivor count (dose: 25.0 mg/kg/injection, schedule: Q01DX009 (ip), vehicle: Klucel (hydroxypropylcellulose) (HPC)) of the same compound?
Answer: 6 of 6

Question: And the survivor count (dose: 25.0 mg/kg/injection, schedule: Q01DX009 (ip), vehicle: saline)?
Answer: 3 of 3

Question: What about the survivor count (dose: 50.0 mg/kg/injection, schedule: Q01DX009 (ip), vehicle: Klucel (hydroxypropylcellulose) (HPC)) of the same compound?
Answer: 6 of 6

Question: What about the survivor count (dose: 50.0 mg/kg/injection, schedule: Q01DX009 (ip), vehicle: saline) of the same compound?
Answer: 3 of 3

Question: What about the survivor count (dose: 50.0 mg/kg/injection, schedule: Q04DX003 (ip), vehicle: Klucel (hydroxypropylcellulose) (HPC)) of the same compound?
Answer: 6 of 6

Question: And the survivor count (dose: 100.0 mg/kg/injection, schedule: Q01DX009 (ip), vehicle: Klucel (hydroxypropylcellulose) (HPC))?
Answer: 0 of 6

Question: And the survivor count (dose: 100.0 mg/kg/injection, schedule: Q01DX009 (ip), vehicle: saline)?
Answer: 0 of 3

Question: What about the survivor count (dose: 100.0 mg/kg/injection, schedule: Q04DX003 (ip), vehicle: Klucel (hydroxypropylcellulose) (HPC)) of the same compound?
Answer: 4 of 6

Question: What about the survivor count (dose: 200.0 mg/kg/injection, schedule: Q01DX009 (ip), vehicle: saline) of the same compound?
Answer: 0 of 3

Question: And the survivor count [6]?
Answer: 1 of 6

Question: And the survivor count (dose: 400.0 mg/kg/injection, schedule: Q01DX009 (ip), vehicle: saline)?
Answer: 0 of 3

Question: And the survivor count [7]?
Answer: 0 of 6

Question: Which survivor count (dose: 35.0 mg/kg/injection, schedule: Q01DX009 (ip), vehicle: saline) does the source give for `CC(=O)CC(C)=O.CC(=O)CC(C)=O.[Fe]` here?
Answer: 1 of 6

Question: And the survivor count (dose: 55.0 mg/kg/injection, schedule: Q01DX009 (ip), vehicle: saline)?
Answer: 0 of 6

Question: What about the survivor count (dose: 55.0 mg/kg/injection, schedule: Q04DX003 (ip), vehicle: saline) of the same compound?
Answer: 0 of 6

Question: What about the survivor count (dose: 80.0 mg/kg/injection, schedule: Q01DX009 (ip), vehicle: saline) of the same compound?
Answer: 0 of 6

Question: What about the survivor count (dose: 80.0 mg/kg/injection, schedule: Q04DX003 (ip), vehicle: saline) of the same compound?
Answer: 0 of 6

Question: For `CSc1ncnc2c1ncn2CCCl`, which survivor count (dose: 400.0 mg/kg/injection, schedule: Q04DX003 (ip), vehicle: saline with Tween-80) is on record?
Answer: 1 of 6
